Measured values taken from the supplement of paper PMC12889115.
The other results are listed elsewhere or left out. These are raw signals, not scaled to a control.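 In the initial screen, polymyxin B was used at a concentration that permeabilizes Salmonella's outer membrane but not its inner membrane. Maximum growth was set by DMSO wells with or without polymyxin B. Since plates varied, data were ranked per plate, and compounds giving the lowest OD600 advanced as hits.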

Tested on: Salmonella enterica serovar Typhimurium SL1344
Experiment: bacterial growth OD600 after 18 h with compound and polymyxin B; higher = more bacterial growth (less inhibition)
Details: 50 µM, Mueller-Hinton broth

Compound | bacterial growth OD600 (polymyxin B 0.75 µg/mL) | bacterial growth OD600 (polymyxin B 1 µg/mL)
COc1ccc(C(=O)NC2CC2)c(OC2CCN(C3CCOCC3)CC2)c1 | 0.836 | 
CC1CN(Cc2ccc3c(c2)CCO3)Cc2ccccc2O1 (configuration not stated) | 0.786 | 
CCN1CCC(N2CCC(C(=O)Nc3ccc(Oc4ccccc4F)cc3)CC2)CC1 |  | 0.9
COc1cccc(OCC2CCCN(Cc3nc(-c4ccccc4)no3)C2)c1 (configuration not stated) |  | 0.843
Cc1ccc(OCc2cc(C(=O)N3CCCCC3c3ccc(F)cc3)no2)cn1 (configuration not stated) |  | 0.021
CN(Cc1cnccn1)C(=O)CC(c1ccccc1)c1ccc(Cl)cc1 (configuration not stated) |  | 0.712
Cc1oc(-c2cccc(F)c2)nc1CN(C)C(C)c1cccs1 (configuration not stated) |  | 0.629
Cc1cc(C)nc(NCc2cccnc2N2CCN(C)CC2)n1 | 0.775 | 
CC(C)c1noc(-c2ccc(NCc3cc(-c4cccnc4)no3)nc2)n1 | 0.008 | 
Cc1ncc(CNC(C)c2cnc(N(C)C3CCCCC3)nc2C)cn1 (configuration not stated) | 0.551 | 
CCn1ccnc1CNC(=O)c1ccc(OC2CCN(S(=O)(=O)N(C)C)CC2)cc1 |  | 0.974
COCC(O)CNC(=O)c1cc(Cl)ccc1OC1CCN(C2CCCC2)CC1 (configuration not stated) |  | 0.918
C/C=C(\C)CN1CCOc2ccc(C(C)(O)COc3ccccc3)cc2C1 (configuration not stated) | 0.878 | 
CC(=O)N[C@@H]1c2ccccc2C2(CCN(C(=O)c3nc4ncccn4n3)CC2)[C@H]1OCc1ccccc1 | 0.94 | 
COc1cccc(CN2CCN(Cc3ccccc3F)C(CCO)C2)c1 (configuration not stated) |  | 0.915
COCC1CCCN(Cc2ccc3c(c2)CN(C(=O)COc2ccccc2Cl)CCO3)C1 (configuration not stated) | 0.966 | 

Compound | bacterial growth OD600 (polymyxin B 0.75 µg/mL) | bacterial growth OD600 (polymyxin B 1 µg/mL)
Cc1ccc2oc(C(=O)NCC3COc4ccccc4O3)c(C)c2c1 (configuration not stated) |  | 0.409
O=C(NC1CC(=O)N(Cc2cccc3ccccc23)C1)c1ccco1 (configuration not stated) |  | 0.91
COCCCN1C(=O)CC(CC(=O)N2CCC(Oc3ccccc3OC)CC2)(c2ccccc2)C1=O (configuration not stated) | 0.825 | 
CC#CCN1C(=O)NC(CCc2ccccc2)(C2CCN(Cc3ccc(OCC)cc3)CC2)C1=O (configuration not stated) | 0.809 | 
CN(C(=O)c1cccs1)C(Cc1ccccc1)C1CCN(C(=O)CSc2ncccn2)CC1 (configuration not stated) | 0.946 | 
Cc1ccc(CN2CCN(Cc3cc4ccccc4o3)CC2CCO)cc1 (configuration not stated) |  | 0.809
COc1ccc(CN2CCCC(CNC(=O)c3ccc(F)cc3)C2)cc1OC (configuration not stated) |  | 0.885
CS(=O)(=O)NCc1cccnc1Oc1cccc(C(F)(F)F)c1 |  | 0.823
Cc1ccccc1SC1CCN(C(=O)c2cn(CCN3CCOCC3)nn2)CC1 |  | 1.08
CC(C)(O)C#Cc1ccc(C(=O)N2CCC3(CC2)c2ccccc2[C@@H](NC(=O)c2ccccc2)[C@@H]3O)o1 | 0.883 | 
COc1cc(C(=O)N2CCCC(C(=O)c3cccc4ccccc34)C2)cc(OC)c1OC (configuration not stated) |  | 0.85
COc1cccc(CN2CC(C(=O)N(C)Cc3ccc(C)cc3)CCC2=O)c1 (configuration not stated) |  | 0.919
COC(=O)C1CCCCN1Cc1ccc2c(c1)CN(C(=O)CN1CCOC1=O)CCO2 (configuration not stated) | 0.85 | 
CC(C)(C)NC(=O)NC1CCCc2nc(-c3cccnc3)ncc21 (configuration not stated) | 0.812 | 
COc1cc(CNC(=O)CCC2(Cc3ccc(F)c(OC)c3)CCC(=O)N2)cc(OC)c1 (configuration not stated) | 0.915 | 
O[C@@H]1CN(Cc2cccs2)CC[C@H]1N1CCCCCC1 | 0.864 | 

Taken from above.
bacterial growth OD600 (polymyxin B 1 µg/mL), CCn1ccnc1CNC(=O)c1ccc(OC2CCN(S(=O)(=O)N(C)C)CC2)cc1 reads 0.974
bacterial growth OD600 (polymyxin B 0.75 µg/mL), Cc1cc(C)nc(NCc2cccnc2N2CCN(C)CC2)n1 reads 0.775
